Test results taken from paper PMC1592478.
No constants are given. Whether binding was seen depends on the method and setting. Some binding calls cover weakened binding; strength is not graded here.

Chains of the proteins cited; added tags and fusions are not shown. Residues count along the entry.
UniProt Q07954, residues 20-4544: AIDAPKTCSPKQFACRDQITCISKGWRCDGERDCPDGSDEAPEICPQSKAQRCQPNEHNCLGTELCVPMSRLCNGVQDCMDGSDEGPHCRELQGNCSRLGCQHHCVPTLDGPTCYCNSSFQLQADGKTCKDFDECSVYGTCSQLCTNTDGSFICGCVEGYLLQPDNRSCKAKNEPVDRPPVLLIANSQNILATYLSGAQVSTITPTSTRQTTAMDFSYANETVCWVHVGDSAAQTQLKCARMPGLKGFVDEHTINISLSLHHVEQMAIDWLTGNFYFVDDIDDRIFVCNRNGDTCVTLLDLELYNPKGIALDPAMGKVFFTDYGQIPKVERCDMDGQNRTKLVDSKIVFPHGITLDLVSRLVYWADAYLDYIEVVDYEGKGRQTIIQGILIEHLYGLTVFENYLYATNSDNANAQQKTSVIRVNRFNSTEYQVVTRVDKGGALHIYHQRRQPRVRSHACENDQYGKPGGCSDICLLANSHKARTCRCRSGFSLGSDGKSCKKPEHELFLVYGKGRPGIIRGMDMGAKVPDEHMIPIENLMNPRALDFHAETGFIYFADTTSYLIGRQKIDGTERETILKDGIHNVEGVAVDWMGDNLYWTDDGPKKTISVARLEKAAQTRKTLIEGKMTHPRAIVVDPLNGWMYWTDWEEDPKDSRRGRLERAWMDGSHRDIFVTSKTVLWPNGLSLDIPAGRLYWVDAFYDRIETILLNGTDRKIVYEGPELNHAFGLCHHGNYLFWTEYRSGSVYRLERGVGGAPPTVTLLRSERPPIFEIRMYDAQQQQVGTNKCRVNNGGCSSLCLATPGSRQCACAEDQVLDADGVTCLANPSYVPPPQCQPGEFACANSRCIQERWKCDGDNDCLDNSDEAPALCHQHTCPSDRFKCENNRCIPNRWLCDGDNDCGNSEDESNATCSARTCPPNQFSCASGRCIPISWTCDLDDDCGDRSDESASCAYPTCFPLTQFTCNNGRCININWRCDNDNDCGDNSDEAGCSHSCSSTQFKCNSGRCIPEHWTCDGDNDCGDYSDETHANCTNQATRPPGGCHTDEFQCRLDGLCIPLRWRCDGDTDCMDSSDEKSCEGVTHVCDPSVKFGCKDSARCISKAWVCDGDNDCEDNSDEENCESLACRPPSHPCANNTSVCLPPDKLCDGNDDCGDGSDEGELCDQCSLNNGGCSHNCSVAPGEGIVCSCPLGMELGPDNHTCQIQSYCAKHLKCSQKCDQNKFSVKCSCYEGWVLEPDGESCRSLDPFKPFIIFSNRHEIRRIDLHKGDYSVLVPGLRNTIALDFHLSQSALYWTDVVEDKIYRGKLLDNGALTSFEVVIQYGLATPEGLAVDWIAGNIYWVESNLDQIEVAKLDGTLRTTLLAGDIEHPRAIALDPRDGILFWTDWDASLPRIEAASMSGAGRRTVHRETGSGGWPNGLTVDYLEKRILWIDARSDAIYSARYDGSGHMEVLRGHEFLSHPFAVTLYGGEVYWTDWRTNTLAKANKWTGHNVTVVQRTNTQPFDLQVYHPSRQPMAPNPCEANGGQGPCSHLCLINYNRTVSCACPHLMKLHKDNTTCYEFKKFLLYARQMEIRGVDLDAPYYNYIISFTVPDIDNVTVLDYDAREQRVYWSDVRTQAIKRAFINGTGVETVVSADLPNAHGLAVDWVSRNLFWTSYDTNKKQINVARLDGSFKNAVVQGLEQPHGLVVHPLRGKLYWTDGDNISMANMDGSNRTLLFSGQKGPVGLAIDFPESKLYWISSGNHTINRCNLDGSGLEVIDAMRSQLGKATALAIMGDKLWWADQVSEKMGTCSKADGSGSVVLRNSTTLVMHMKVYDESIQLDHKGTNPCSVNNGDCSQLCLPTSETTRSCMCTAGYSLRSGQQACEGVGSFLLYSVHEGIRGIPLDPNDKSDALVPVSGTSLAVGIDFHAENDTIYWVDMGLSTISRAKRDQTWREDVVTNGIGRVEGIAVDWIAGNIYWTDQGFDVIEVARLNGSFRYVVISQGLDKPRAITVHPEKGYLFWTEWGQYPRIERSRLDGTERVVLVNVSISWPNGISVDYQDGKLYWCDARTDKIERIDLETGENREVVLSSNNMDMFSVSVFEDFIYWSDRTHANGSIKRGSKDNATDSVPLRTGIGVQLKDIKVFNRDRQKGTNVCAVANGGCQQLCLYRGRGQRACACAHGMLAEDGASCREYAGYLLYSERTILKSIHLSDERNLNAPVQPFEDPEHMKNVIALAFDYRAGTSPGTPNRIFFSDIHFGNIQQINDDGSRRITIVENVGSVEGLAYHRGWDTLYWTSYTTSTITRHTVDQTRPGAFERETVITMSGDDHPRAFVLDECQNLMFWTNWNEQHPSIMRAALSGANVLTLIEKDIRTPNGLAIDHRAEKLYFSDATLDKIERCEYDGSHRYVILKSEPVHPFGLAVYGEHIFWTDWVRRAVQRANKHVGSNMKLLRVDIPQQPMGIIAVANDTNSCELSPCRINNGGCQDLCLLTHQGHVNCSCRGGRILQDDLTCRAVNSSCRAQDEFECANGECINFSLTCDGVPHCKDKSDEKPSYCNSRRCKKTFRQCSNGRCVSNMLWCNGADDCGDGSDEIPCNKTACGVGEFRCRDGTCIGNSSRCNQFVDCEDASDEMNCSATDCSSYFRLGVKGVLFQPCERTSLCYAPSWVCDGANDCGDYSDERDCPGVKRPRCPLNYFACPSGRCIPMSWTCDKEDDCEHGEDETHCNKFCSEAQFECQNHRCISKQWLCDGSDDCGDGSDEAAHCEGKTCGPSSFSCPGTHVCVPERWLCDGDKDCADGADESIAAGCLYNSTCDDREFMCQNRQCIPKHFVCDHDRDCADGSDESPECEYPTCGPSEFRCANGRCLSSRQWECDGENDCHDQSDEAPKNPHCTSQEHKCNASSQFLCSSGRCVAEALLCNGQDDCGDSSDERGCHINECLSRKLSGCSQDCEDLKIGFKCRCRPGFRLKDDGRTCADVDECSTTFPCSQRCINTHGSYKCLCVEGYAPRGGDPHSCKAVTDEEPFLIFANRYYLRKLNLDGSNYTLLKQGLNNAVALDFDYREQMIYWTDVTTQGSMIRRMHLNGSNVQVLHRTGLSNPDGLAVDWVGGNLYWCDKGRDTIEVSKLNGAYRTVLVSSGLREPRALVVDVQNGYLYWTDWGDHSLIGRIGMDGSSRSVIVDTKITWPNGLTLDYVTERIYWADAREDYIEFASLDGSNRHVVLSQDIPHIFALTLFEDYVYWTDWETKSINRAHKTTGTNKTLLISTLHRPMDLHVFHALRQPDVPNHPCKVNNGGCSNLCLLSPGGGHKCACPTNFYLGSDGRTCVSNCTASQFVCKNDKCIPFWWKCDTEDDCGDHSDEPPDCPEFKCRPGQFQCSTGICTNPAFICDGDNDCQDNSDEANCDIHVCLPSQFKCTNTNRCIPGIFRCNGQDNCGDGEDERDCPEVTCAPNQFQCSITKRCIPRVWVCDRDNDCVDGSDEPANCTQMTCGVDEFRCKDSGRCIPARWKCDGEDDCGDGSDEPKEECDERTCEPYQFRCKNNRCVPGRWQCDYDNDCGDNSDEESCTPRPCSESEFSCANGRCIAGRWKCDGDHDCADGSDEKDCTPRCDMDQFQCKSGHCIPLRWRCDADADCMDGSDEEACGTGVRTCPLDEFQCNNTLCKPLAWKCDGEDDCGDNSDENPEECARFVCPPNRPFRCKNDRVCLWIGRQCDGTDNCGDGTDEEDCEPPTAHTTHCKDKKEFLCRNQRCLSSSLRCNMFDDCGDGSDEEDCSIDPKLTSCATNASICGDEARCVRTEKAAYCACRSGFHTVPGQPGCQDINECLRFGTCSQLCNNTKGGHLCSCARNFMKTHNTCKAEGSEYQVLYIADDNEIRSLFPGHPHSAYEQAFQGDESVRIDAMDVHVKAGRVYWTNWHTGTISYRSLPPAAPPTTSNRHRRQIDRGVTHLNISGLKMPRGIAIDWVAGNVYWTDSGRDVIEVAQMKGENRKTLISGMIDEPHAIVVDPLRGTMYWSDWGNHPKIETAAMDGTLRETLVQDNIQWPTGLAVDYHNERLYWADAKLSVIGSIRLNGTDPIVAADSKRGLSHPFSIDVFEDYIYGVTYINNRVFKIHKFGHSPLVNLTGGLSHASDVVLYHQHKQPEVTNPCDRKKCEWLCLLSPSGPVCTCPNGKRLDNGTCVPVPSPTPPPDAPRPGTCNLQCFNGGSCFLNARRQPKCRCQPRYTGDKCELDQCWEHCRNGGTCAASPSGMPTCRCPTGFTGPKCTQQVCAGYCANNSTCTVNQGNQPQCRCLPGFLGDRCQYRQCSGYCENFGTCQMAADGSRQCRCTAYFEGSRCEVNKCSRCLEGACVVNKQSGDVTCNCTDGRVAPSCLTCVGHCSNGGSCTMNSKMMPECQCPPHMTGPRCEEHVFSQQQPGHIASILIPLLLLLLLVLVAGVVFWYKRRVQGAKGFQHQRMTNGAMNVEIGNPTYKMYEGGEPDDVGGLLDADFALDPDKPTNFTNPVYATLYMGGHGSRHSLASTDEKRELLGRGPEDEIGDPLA

Target: low density lipoprotein receptor-related protein (LRP), endogenous on GM00701 human fibroblasts (human (endogenous in GM00701)) (UniProt Q07954)
Experiment: radioligand binding; ^125I-α2M (1 μg/ml) on confluent GM00701 cells, 4°C, 3 h, 20 mM Hepes pH 7.4, 150 mM NaCl, 2 mM CaCl2, 1% BSA; without or with RAP-GST (50 μg/ml) or unlabeled α2M (10 μg/ml); scintillation counting of cells solubilized in 0.1 N NaOH; only the binder purified

- binding: binds
B1: Human α2-macroglobulin (α2M), methylamine-activated (ligand, UniProt P01023 24-1474)
chain: SVSGKPQYMVLVPSLLHTETTEKGCVLLSYLNETVTVSASLESVRGNRSLFTDLEAENDVLHCVAFAVPKSSSNEEVMFLTVQVKGPTQEFKKRTTVMVKNEDSLVFVQTDKSIYKPGQTVKFRVVSMDENFHPLNELIPLVYIQDPKGNRIAQWQSFQLEGGLKQFSFPLSSEPFQGSYKVVVQKKSGGRTEHPFTVEEFVLPKFEVQVTVPKIITILEEEMNVSVCGLYTYGKPVPGHVTVSICRKYSDASDCHGEDSQAFCEKFSGQLNSHGCFYQQVKTKVFQLKRKEYEMKLHTEAQIQEEGTVVELTGRQSSEITRTITKLSFVKVDSHFRQGIPFFGQVRLVDGKGVPIPNKVIFIRGNEANYYSNATTDEHGLVQFSINTTNVMGTSLTVRVNYKDRSPCYGYQWVSEEHEEAHHTAYLVFSPSKSFVHLEPMSHELPCGHTQTVQAHYILNGGTLLGLKKLSFYYLIMAKGGIVRTGTHGLLVKQEDMKGHFSISIPVKSDIAPVARLLIYAVLPTGDVIGDSAKYDVENCLANKVDLSFSPSQSLPASHAHLRVTAAPQSVCALRAVDQSVLLMKPDAELSASSVYNLLPEKDLTGFPGPLNDQDNEDCINRHNVYINGITYTPVSSTNEKDMYSFLEDMGLKAFTNSKIRKPKMCPQLQQYEMHGPEGLRVGFYESDVMGRGHARLVHVEEPHTETVRKYFPETWIWDLVVVNSAGVAEVGVTVPDTITEWKAGAFCLSEDAGLGISSTASLRAFQPFFVELTMPYSVIRGEAFTLKATVLNYLPKCIRVSVQLEASPAFLAVPVEKEQAPHCICANGRQTVSWAVTPKSLGNVNFTVSAEALESQELCGTEVPSVPEHGRKDTVIKPLLVEPEGLEKETTFNSLLCPSGGEVSEELSLKLPPNVVEESARASVSVLGDILGSAMQNTQNLLQMPYGCGEQNMVLFAPNIYVLDYLNETQQLTPEIKSKAIGYLNTGYQRQLNYKHYDGSYSTFGERYGRNQGNTWLTAFVLKTFAQARAYIFIDEAHITQALIWLSQRQKDNGCFRSSGSLLNNAIKGGVEDEVTLSAYITIALLEIPLTVTHPVVRNALFCLESAWKTAQEGDHGSHVYTKALLAYAFALAGNQDKRKEVLKSLNEEAVKKDNSVHWERPQKPKAPVGHFYEPQAPSAEVEMTSYVLLAYLTAQPAPTSEDLTSATNIVKWITKQQNAQGGFSSTQDTVVALHALSKYGAATFTRTGKAAQVTIQSSGTFSSKFQVDNNNRLLLQQVSLPELPGEYSMKVTGEGCVYLQTSLKYNILPEKEEFPFALGVQTLPQTCDEPKAHTSFQISLSVSYTGSRSASNMAIVDVKMVSGFIPLKPTVKMLERSNHVSRTEVSSNHVLIYLDKVSNQTLSLFFTVLQDVPVRDLKPAIVKVYDYYETDEFAIAEYNAPCSKDLGNA
modifications: activated with 0.4 M methylamine; ^125I label (Iodo-Beads)
